Results reported in the supplement of paper PMC10849652.
Some of the results follow.

Protein sequences, listed by entry. Tags and fused reporters are not part of them. Lines headed by an entry give the natural chain unless they say otherwise; changes in a name come on top.
UniProt P01037: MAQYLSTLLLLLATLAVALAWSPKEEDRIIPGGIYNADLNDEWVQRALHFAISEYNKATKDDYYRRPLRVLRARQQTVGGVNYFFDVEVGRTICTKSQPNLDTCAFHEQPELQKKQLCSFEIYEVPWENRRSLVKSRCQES
UniProt Q8WUE5: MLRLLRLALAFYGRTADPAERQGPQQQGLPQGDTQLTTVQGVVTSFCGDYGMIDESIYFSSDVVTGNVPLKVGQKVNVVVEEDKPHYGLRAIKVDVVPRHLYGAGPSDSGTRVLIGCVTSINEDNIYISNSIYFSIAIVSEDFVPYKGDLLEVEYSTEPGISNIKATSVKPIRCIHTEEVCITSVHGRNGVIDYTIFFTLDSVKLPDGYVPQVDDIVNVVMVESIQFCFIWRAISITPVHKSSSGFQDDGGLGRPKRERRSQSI
UniProt Q16850: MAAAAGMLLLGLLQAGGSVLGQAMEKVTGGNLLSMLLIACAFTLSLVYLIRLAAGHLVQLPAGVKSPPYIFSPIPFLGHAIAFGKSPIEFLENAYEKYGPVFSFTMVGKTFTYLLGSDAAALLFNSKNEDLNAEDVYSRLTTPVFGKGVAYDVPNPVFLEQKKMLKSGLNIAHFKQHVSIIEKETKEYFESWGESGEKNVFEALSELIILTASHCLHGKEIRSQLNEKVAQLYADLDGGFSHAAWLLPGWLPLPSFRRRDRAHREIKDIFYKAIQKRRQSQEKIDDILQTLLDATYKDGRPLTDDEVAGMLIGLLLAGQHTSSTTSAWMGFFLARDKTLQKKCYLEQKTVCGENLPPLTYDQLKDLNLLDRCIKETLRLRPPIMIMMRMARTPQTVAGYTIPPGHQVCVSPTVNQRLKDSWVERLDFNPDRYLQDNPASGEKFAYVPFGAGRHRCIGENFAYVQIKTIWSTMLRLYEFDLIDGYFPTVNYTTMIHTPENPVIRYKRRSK
UniProt P35221: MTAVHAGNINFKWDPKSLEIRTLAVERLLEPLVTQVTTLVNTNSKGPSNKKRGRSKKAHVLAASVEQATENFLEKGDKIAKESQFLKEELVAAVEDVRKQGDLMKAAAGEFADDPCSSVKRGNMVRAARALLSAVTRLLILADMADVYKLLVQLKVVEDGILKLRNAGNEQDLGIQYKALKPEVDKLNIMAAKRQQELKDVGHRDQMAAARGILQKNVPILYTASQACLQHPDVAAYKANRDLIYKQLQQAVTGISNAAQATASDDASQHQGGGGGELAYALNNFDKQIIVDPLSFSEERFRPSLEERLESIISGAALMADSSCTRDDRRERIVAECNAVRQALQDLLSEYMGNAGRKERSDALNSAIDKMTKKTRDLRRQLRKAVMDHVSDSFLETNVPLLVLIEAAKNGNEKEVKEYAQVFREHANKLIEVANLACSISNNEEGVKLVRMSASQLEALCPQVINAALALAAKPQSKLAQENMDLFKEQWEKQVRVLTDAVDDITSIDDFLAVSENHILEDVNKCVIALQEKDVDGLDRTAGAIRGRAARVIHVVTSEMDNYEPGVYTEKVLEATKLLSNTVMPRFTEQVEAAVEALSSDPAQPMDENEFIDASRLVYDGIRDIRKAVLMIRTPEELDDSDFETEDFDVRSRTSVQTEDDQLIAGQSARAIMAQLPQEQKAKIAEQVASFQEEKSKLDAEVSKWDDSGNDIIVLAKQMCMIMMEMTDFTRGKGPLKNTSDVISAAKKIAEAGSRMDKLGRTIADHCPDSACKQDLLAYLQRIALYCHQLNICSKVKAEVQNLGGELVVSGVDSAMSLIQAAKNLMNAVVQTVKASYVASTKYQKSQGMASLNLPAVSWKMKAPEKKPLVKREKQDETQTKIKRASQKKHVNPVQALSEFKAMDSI

Legend:
Test in all cases: log2 fold change, soluble protein after heating vs DMSO (PISA); higher = thermal stabilisation; K562 cells, 10 uM, 30 min; active = over 0.2 and 3.5 SD of the protein, either way, in both replicates (recomputed)
bafetinib = compound: Cc1ccc(NC(=O)c2ccc(CN3CC[C@H](N(C)C)C3)c(C(F)(F)F)c2)cc1Nc1nccc(-c2cncnc2)n1 [bafetinib]
Procedure, shortened: (§1)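 Values are thermal stability changes relative to control samples and are taken from duplicates. They are stated as log2 fold changes. Before quantification by TMTpro 16plex LC-MS/MS with equalised channel sums, K562 cells at 2×10^6 cells/mL were treated with 10 μM compound for 30 min, heated in aliquots for 3 min across 48°C-58°C, pooled, extracted in PBS with 0.5% NP-40 at 4°C, and centrifuged at 21,000xg for 90 min to give the soluble supernatant.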

nilotinib = compound: Cc1cn(-c2cc(NC(=O)c3ccc(C)c(Nc4nccc(-c5cccnc5)n4)c3)cc(C(F)(F)F)c2)cn1 [nilotinib]
Procedure, shortened: as §1

[1] = compound: Cc1nc(Nc2n[nH]c3c2CN(C(=O)N[C@H](CN(C)C)c2ccccc2)C3(C)C)c2sccc2n1
Procedure, shortened: as §1

dasatinib = compound: Cc1nc(Nc2ncc(C(=O)Nc3c(C)cccc3Cl)s2)cc(N2CCN(CCO)CC2)n1 [dasatinib]
Procedure, shortened: as §1

[2] = compound: Cc1ncc(-c2ccnc(Nc3ccc(S(C)(=O)=O)cc3)n2)n1C(C)C
Procedure, shortened: as §1

mubritinib = compound: FC(F)(F)c1ccc(/C=C/c2nc(COc3ccc(CCCCn4ccnn4)cc3)co2)cc1 [mubritinib]
Procedure, shortened: as §1

[3] = compound: NC(=O)Nc1cc(-c2cccc(F)c2)sc1C(=O)N[C@H]1CCCNC1
Procedure, shortened: as §1

[4] = compound: NC1(c2ccc(-c3nc4ccn5c(=O)[nH]nc5c4cc3-c3ccccc3)cc2)CCC1
Procedure, shortened: as §1

[5] = compound: NCC(=O)Nc1ccc(-n2nc(C(F)(F)F)cc2-c2ccc3c(ccc4ccccc43)c2)cc1
Procedure, shortened: as §1

entinostat = compound: Nc1ccccc1NC(=O)c1ccc(CNC(=O)OCc2cccnc2)cc1 [entinostat]
Procedure, shortened: as §1

silmitasertib = compound: O=C(O)c1ccc2c(c1)nc(Nc1cccc(Cl)c1)c1ccncc12 [silmitasertib]
Procedure, shortened: as §1

[6] = compound: O=C1NC(=O)C(c2cnc3ccccn23)=C1c1cn2c3c(cc(F)cc13)CN(C(=O)N1CCCCC1)CC2
Procedure, shortened: as §1

[7] = compound: Cc1cccc(CC(=O)N2CCc3c2ccc(-c2cn(C)c4ncnc(N)c24)c3F)n1
Procedure, shortened: as §1

[8] = compound: Cn1cc(-c2ccc3c(c2)CCN3C(=O)Cc2cccc(C(F)(F)F)c2)c2c(N)ncnc21
Procedure, shortened: as §1

tipifarnib = compound: Cn1cncc1[C@@](N)(c1ccc(Cl)cc1)c1ccc2c(c1)c(-c1cccc(Cl)c1)cc(=O)n2C [tipifarnib]
Procedure, shortened: as §1

[9] = compound: NC(=O)c1cnc(N[C@@H]2CCCC[C@@H]2N)nc1Nc1cccc(-n2nccn2)c1
Procedure, shortened: as §1

vorinostat = compound: O=C(CCCCCCC(=O)Nc1ccccc1)NO [vorinostat]
Procedure, shortened: as §1

citarinostat = compound: O=C(CCCCCCNC(=O)c1cnc(N(c2ccccc2)c2ccccc2Cl)nc1)NO [citarinostat]
Procedure, shortened: as §1

[10] = compound: c1cc(OCCN2CCCCC2)cc(-c2n[nH]c3ccc(-c4nnc[nH]4)cc23)c1
Procedure, shortened: as §1

[11] = compound: Cn1cc(-c2ccc3nnc(C(F)(F)c4ccc5ncccc5c4)n3n2)cn1
Procedure, shortened: as §1

CST1 (UniProt P01037)
log2 fold change (bafetinib): inactive: -0.112
log2 fold change (nilotinib): inactive: 0
log2 fold change [1]: inactive: -0.027
log2 fold change (dasatinib): inactive: -0.236
log2 fold change [2]: inactive: 0.163
log2 fold change (mubritinib): inactive: 0.425
log2 fold change [3]: inactive: 0.289
log2 fold change [4]: inactive: -0.014
log2 fold change [5]: inactive: 0.08
log2 fold change (entinostat): inactive: 0.345
log2 fold change (silmitasertib): inactive: -0.029
log2 fold change [6]: inactive: -0.072

CT55 (UniProt Q8WUE5)
log2 fold change (bafetinib): inactive: -0.119
log2 fold change [7]: inactive: -0.024
log2 fold change (nilotinib): inactive: -0.038
log2 fold change [1]: inactive: -0.062
log2 fold change (dasatinib): inactive: -0.007
log2 fold change [2]: inactive: -0.023
log2 fold change [8]: inactive: -0.056
log2 fold change (tipifarnib): inactive: -0.12
log2 fold change (mubritinib): inactive: 0.013
log2 fold change [3]: inactive: -0.015
log2 fold change [9]: inactive: -0.07
log2 fold change [4]: inactive: -0.164
log2 fold change [5]: inactive: -0.126
log2 fold change (entinostat): inactive: 0.037
log2 fold change (vorinostat): inactive: 0.086
log2 fold change (citarinostat): inactive: 0.076
log2 fold change (silmitasertib): inactive: 0.121
log2 fold change [6]: inactive: -0.027
log2 fold change [10]: inactive: -0.083

CYP51A1 (UniProt Q16850)
log2 fold change (bafetinib): inactive: 0.02
log2 fold change [7]: inactive: -0.019
log2 fold change (nilotinib): inactive: 0.156
log2 fold change [1]: inactive: -0.03
log2 fold change (dasatinib): inactive: 0.092
log2 fold change [2]: inactive: -0.016
log2 fold change [8]: inactive: -0.016
log2 fold change [11]: inactive: -0.143
log2 fold change (tipifarnib): active: 1.27
log2 fold change (mubritinib): inactive: 0.047
log2 fold change [3]: inactive: -0.018
log2 fold change [9]: inactive: -0.004
log2 fold change [4]: inactive: 0.024
log2 fold change [5]: inactive: -0.033
log2 fold change (entinostat): inactive: -0.045
log2 fold change (vorinostat): inactive: 0.119
log2 fold change (citarinostat): inactive: 0.006
log2 fold change (silmitasertib): inactive: 0.001
log2 fold change [6]: active: 0.964
log2 fold change [10]: inactive: -0.112

CTNNA1 isoform 2 (UniProt P35221)
log2 fold change (bafetinib): inactive: -0.038
log2 fold change [7]: inactive: -0.021
log2 fold change (nilotinib): inactive: -0.061
log2 fold change [1]: inactive: -0.01
log2 fold change (dasatinib): inactive: -0.026
log2 fold change [2]: inactive: -0.024
log2 fold change [8]: inactive: 0.046
log2 fold change [11]: inactive: -0.042
log2 fold change (tipifarnib): inactive: 0.019
log2 fold change (mubritinib): inactive: 0.022
log2 fold change [3]: inactive: -0.021
log2 fold change [9]: inactive: -0.014
log2 fold change [4]: inactive: -0.052
log2 fold change [5]: inactive: 0.008
log2 fold change (entinostat): inactive: 0.03
log2 fold change (vorinostat): inactive: 0
log2 fold change (citarinostat): inactive: 0.028
log2 fold change (silmitasertib): inactive: 0.044
log2 fold change [6]: inactive: -0.041
log2 fold change [10]: inactive: -0.049
